These are yes or no findings as the source states them, for the method shown. In cells and extracts the contact can be indirect. These calls come from enrichment with a bait or labelling near it, and not all partners need be listed. For some assays here: Where a sequence is shown, tags or fusion partners need not be part of it.
T1: GFP-COR28 (COLD REGULATED GENE 28) (Arabidopsis thaliana) (UniProt Q8L983)
T1 sequence: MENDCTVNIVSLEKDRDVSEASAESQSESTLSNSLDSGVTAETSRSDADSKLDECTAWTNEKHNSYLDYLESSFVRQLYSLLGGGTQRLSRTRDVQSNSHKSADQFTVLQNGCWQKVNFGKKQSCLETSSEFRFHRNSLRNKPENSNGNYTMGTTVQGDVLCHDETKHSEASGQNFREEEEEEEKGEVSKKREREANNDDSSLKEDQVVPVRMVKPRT

The chains behind the UniProt entries cited, without tags or fusion partners. Where a name states a change or a piece, a line headed by the entry shows the natural chain unless it says otherwise.
UniProt Q8L8T7: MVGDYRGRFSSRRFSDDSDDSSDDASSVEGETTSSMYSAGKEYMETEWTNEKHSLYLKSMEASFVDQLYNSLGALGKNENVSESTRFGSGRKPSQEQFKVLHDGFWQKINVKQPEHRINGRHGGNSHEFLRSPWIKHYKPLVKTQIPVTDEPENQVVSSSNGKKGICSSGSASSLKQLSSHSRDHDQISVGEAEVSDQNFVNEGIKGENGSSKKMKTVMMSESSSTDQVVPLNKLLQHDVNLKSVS

T2: LNK1-HFC (NIGHT LIGHT INDUCIBLE AND CLOCK REGULATED 1 with 3x-FLAG-6x-His C-terminal tag) (Arabidopsis thaliana) (UniProt A8MQN2)
T2 sequence: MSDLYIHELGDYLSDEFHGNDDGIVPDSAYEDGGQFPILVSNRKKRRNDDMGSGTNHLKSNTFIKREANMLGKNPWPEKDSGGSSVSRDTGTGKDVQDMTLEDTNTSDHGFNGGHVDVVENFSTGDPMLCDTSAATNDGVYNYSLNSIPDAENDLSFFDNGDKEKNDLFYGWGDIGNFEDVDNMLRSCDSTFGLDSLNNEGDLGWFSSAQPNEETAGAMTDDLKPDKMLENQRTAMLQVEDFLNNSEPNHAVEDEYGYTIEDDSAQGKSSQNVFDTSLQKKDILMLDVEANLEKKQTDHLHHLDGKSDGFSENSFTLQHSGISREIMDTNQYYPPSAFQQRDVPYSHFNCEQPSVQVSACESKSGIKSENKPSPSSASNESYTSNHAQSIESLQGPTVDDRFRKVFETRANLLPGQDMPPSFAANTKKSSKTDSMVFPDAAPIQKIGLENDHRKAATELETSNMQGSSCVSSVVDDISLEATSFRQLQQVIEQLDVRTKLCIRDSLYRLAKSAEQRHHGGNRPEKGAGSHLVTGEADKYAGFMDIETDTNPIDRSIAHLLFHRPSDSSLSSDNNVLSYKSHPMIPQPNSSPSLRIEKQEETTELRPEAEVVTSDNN

T3: LNK2-HFC (NIGHT LIGHT INDUCIBLE AND CLOCK REGULATED 2 with 3x-FLAG-6x-His C-terminal tag) (Arabidopsis thaliana) (UniProt F4JCX9)
T3 sequence: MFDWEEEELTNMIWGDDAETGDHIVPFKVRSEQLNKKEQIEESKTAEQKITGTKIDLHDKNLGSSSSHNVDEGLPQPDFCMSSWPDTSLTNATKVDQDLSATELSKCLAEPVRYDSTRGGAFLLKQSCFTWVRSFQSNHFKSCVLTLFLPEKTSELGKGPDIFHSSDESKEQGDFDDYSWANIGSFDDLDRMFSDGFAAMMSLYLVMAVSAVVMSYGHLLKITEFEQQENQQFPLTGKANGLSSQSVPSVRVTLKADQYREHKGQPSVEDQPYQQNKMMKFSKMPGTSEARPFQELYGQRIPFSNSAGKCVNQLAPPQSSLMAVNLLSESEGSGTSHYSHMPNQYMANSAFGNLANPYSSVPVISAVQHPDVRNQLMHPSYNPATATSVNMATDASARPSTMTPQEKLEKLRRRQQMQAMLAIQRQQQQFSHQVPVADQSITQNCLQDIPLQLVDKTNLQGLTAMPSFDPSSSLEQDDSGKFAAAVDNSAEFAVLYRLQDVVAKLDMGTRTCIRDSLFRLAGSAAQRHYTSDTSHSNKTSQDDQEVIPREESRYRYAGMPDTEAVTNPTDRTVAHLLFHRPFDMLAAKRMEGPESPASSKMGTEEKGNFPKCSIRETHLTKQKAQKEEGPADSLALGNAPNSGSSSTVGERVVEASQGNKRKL

B1: REVEILLE 5 (RVE5) (protein, UniProt C0SVG5 1-303)
chain: MVSVNPRPKGFPVFDSSNMSLPSSDGFGSIPATGRTSTVSFSEDPTTKIRKPYTIKKSRENWTDQEHDKFLEALHLFDRDWKKIEAFVGSKTVVQIRSHAQKYFLKVQKSGANEHLPPPRPKRKASHPYPIKAPKNVAYTSLPSSSTLPLLEPGYLYSSDSKSLMGNQAVCASTSSSWNHESTNLPKPVIEVEEPGVSATAPLPNNRCRQEDTERVRAVTKPNNEESCEKPHRVMPNFAEVYSFIGSVFDPNTSGHLQRLKQMDPINMETVLLLMQNLSVNLTSPEFAEQRRLISSYSAKALK
B2: REVEILLE 6 (RVE6) (protein, UniProt Q8H0W3 1-331)
chain: MVSRNSDGYFLDPTGMTVPGLGPSFTAAVSSSSSPTTSSTAVAVADVTAMVSSSEEDLSKKIRKPYTITKSRESWTEPEHDKFLEALQLFDRDWKKIEAFIGSKTVIQIRSHAQKYFLKVQKSGTGEHLPPPRPKRKAAHPYPQKAHKNVQLQVPGSFKSTSEPNDPSFMFRPESSSMLMTSPTTAAAAPWTNNAQTISFTPLPKAGAGANNNCSSSSENTPRPRSNRDARDHGNVGHSLRVLPDFAQVYGFIGSVFDPYASNHLQKLKKMDPIDVETVLLLMRNLSINLSSPDFEDHRRLLSSYDIGSETATDHGGVNKTLNKDPPEIST
B3: SPA2, Q9T014 1-1036 (protein)
chain: MMDEGSVGDVSRIDEADVAHLQFKNSEQSFKPENIEVREVKEVQVQREAGSPDCSYGVIADFLDGKNGGDHVELIGNEPCSSRQNTNDEGDVVEELTVKTCEGSSMAIVGRPSSRARLEMNRSQFLHRFPLDGDLPGSSSMSKKVIDRGTVSILRNAGKMSLPETSNGQLAIIAVNGEANEHLTNVERNPVPVEALSHEGIKTKMLSQSGFSQFFVRKTLKGKGVTFRGPPNNRSKARNMDQQTVASSGSALVIANTSAKISSSIPLAAYDGLPCLPSNTSKPSSCANPSDTHRGCGGEGLSLREWLKSERQEVNKAECMYIFRQIVDHVDCSHSQGVVLCDLRPSSFKIFKENAVKYVVSGSQRESFDSNMNKETLSQLENPLVRRRLGDTSSLSIPAKKQKSSGPSSRQWPMFQRAGGVNIQTENNDGAIQEFHFRSSQPHCSTVACPFTSVSEQLEEKWYASPEELRGDMRSASSNIYSLGILLYELLSQFQCERAREAAMSDIRHRILPPKFLSENPKEAGFCLWLLHPESSCRPSTRDILQSEVVNGIPDLYAEGLSLSIEQEDTESELLQHFLFLSQEKRQKHAGNLMEEIASVEADIEEIVKRRCAIGPPSLEEASSSSPASSVPEMRLIRNINQLESAYFAARIDAHLPEARYRLRPDRDLLRNSDNTVAEVENSETWSSDDRVGAFFDGLCKYARYSKFETRGVLRTSELNNTSNVICSLGFDRDEDYFATAGVSKKIKIYEFNSLFNESVDIHYPAIEMPNRSKLSGVCWNNYIRNYLASSDYDGIVKLWDVTTGQAISHFIEHEKRAWSVDFSEACPTKLASGSDDCSVKLWNINERNCLGTIRNIANVCCVQFSPQSSHLLAFGSSDFRTYCYDLRNLRTPWCILSGHNKAVSYAKFLDNETLVTASTDNTLKLWDLKKTTHGGLSTNACSLTFGGHTNEKNFVGLSTSDGYIACGSETNEVYAYHRSLPMPITSYKFGSIDPISGKEIEEDNNLFVSSVCWRKRSNMVVSASSNGSIKVLQLV
B4: SPA3, Q9LJR3 1-845 (protein)
chain: MEGSSNSNSRGFNTSGVSDRNTEFLPVERLTTRSKPSSHVDEYVRSLFGSTSTHKSGEDDSLGIDPFVRSLEWGDVSLRQWLDKPERSVDVFECLHVFRQIVEIVNAAHSQGIVVHNVRPSCFVMSSFNHVSFIESASCSDSGSDSLEDGPISQKEIGSSRREEAVSKAIAIEEKGVYNKLLERKIEKLEEEKTQPFPMKHILAMETSWYTSPEEDFGSSSTCASDVYRLGVLLFELFCPVPSREEKSRTMSSLRHRVLPPQILLKCPKEASFCLWLLHPEPTCRPSMSDLLQSEFITEPRDNLEEREAAIELRDRIEEQESLLEFLLLIQQRKQESAYRLQDTVSLLSSDIEQVVKRQLILKKRGSSLSDFSKDDHQYTSGQPLMSFQANEEPSAFLASRKRVRQGILALENGVEVDEESQGSTLLESSRLMRNFKKLESVYFLTRRRQMKAAASGKSLTRHSPLSSENGRGSMIVSEKSSVSNPVAPKAFFNNDSRQGGWIDPFLEGLCRYLSFSQLRVKADLKQGDLLNSSNLVCALAFDREGELFATAGVNKKIKIFECNSIVNDNRDIHYPVVELAGRSKLSSLCWNSYIKSQIASSNFDGVVQIWDVARSQLVTEMKEHKKRVWSIDISSADPTLLASGSDDGTVKLWSINQGVSIGTIKTKANVCCVQFPSDSGRSLAFGSADHKVYYYDLRNPKIPLCTMIGHSKTVSYVKFVDSSTLVSSSTDNTLKLWDLSMSASGINESPLHSFTGHTNLKNFVGLSVSDGYIATGSETNEVFVYHKAFPMPVMSYMFNNTDSMSGLEVDDASQFISSICWRGQSSTLVAANSNGNIKILEMMT
B5: SPA4, Q94BM7 1-794 (protein)
chain: MKGSSESSSRGLNNTSGVSEFCTDGSKSLSHIDYVRSLLGSHKEANLGGLDDDSIVRALECEDVSLRQWLDNPDRSVDAFECFHVFRQIVEIVNAAHSQGIVVHNVRPSCFVMSSFNNVSFIESASCSDSGSDEDATTKSREIGSSRQEEILSERRSKQQEEVKKQPFPMKQILAMEMSWYTSHEEDNGSLCNCASDIYRLGVLLFELFCPVSSREEKSRTMSSLRHRVLPPQILLNWPKEASFCLWLLHPEPSCRPSMSELLQSEFINEPRENLEEREAAMELRDRIEEQELLLEFLFLIQQRKQEAADKLQDTISLLSSDIDQVVKRQLVLQQKGRDVRSFLASRKRIRQGAETTAAEEENDDNSIDEESKLDDTLESTLLESSRLMRNLKKLESVYFATRYRQIKAATAAEKPLARYYSALSCNGRSSEKSSMSQPSKDPINDSRQGGWIDPFLEGLCKYLSFSKLRVKADLKQGDLLNSSNLVCAIGFDRDGEFFATAGVNKKIKIFECESIIKDGRDIHYPVVELASRSKLSGICWNSYIKSQVASSNFEGVVQVWDVARNQLVTEMKEHEKRVWSIDYSSADPTLLASGSDDGSVKLWSINQGVSIGTIKTKANICCVQFPSETGRSLAFGSADHKVYYYDLRNPKLPLCTMIGHHKTVSYVRFVDSSTLVSSSTDNTLKLWDLSMSISGINETPLHSFMGHTNVKNFVGLSVSDGYIATGSETNEVFVYHKAFPMPVLSYKFKTIDPVSELEVDDASQFISSVCWRGQSSTLVAANSTGNIKILEMV

Legend:
Test in all cases: affinity purification with mass spectrometry
[1] = molecular target: T1, GFP-COR28 (COLD REGULATED GENE 28) (Arabidopsis thaliana)
[2] = molecular target: T2, LNK1-HFC (NIGHT LIGHT INDUCIBLE AND CLOCK REGULATED 1 with 3x-FLAG-6x-His C-terminal tag) (Arabidopsis thaliana)
[3] = molecular target: T3, LNK2-HFC (NIGHT LIGHT INDUCIBLE AND CLOCK REGULATED 2 with 3x-FLAG-6x-His C-terminal tag) (Arabidopsis thaliana)
[4] = molecular target: YFP-COR27 (COLD REGULATED GENE 27) (Arabidopsis thaliana) (UniProt Q8L8T7)
[5] = molecular target: YFP-COR27 (COLD REGULATED GENE 27) (Arabidopsis thaliana), Q8L8T7; settings: remark: other sources report otherwise

Binder | binding [1] | binding [2] | binding [3] | binding [4] | binding [5]
B1 | binds | binds | binds | binds | 
B2 | binds | binds | binds | binds | 
B3 |  |  |  |  | binds
B4 |  |  |  |  | binds
B5 |  |  |  |  | binds
